According to publication PMC6411869:
No constants are given. Whether binding was seen depends on the method and setting. In cells and extracts the contact can be indirect. Here binding means that the protein was enriched with, or labelled near, the bait; the list need not be complete.

Molecular target: HA-tagged TRIAD3B (E3 ubiquitin-protein ligase TRIAD3/RNF216, longest isoform) (human)
Test: affinity purification with mass spectrometry; HA-TRIAD3B affinity purified from HEK293T lysate on anti-HA magnetic beads, incubated with approx. 5 mg protein of mouse cortex lysate at 4 °C for 5 h, washed 4x in PBS, 0.5% Triton X-100; LC-MS/MS; hits found in 3 of 3 experiments with at least 10-fold enrichment over the HA-control; only the target purified

Row | Binder | binding
1 | RNF41 (E3 ubiquitin-protein ligase NRDP1) from mouse cortex lysate (protein, UniProt Q8BH75 1-317) MGYDVTRFQGDVDEDLICPICSGVLEEPVQAPHCEHAFCNACITQWFSQQQTCPVDRSVVTVAHLRPVPRIMRNMLSKLQIACDNAVFGCSAVVRLDNLMSHLSDCEHNPKRPVTCEQGCGLEMPKDELPNHNCIKHLRSVVQQQQSRIAELEKTSAEHKHQLAEQKRDIQLLKAYMRAIRSVNPNLQNLEETIEYNEILEWVNSLQPARVTRWGGMISTPDAVLQAVIKRSLVESGCPASIVNELIENAHERSWPQGLATLETRQMNRRYYENYVAKRIPGKQAVVVMACENQHMGDDMVQEPGLVMIFAHGVEEI | binds
2 | Ankyrin repeat domain-containing protein 13D (Ankrd13D) from mouse cortex lysate (protein, UniProt Q6PD24 1-605) MAGLGPTFPLHRLVWANRHRELEAALHSRKHDIEQEDPQGRTPLELAVTLGNLESVRVLLRHNANVGKESHQGWAVLQEAVSTGDPEMVQLVLQYRDFQRATQRLAGIPELLNKLRQAPDFYVEMKWEFTSWVPLVSKMCPSDVYRVWKRGESLRVDTSLLGFEHMTWQRGRRSFIFRGQEAGALVMEVDHDRQVVHTETLAPALHEPEALLAAMRPSEEHVASRLTSPIVSTHLDTRNVAFERNKCGIWGWRSEKMESVSGYEAKVYSATNVELVTRTRTEHLSDQDKLRNKGGKTPFQSFLGMAQQHSSHTLAPVQQAASPTNPTAISAEEYFDPSFSLESRNIGRPIEMSSKVQRFKATLWLSEEHPLSLGDQVTPIIDLMAISNAHFAKLRDFITLRLPPGFPVKIEIPLFHVLNARITFSNLCGCDEPVSSVCVPNSSSAISASGSPFPCEVDPTVFEVPEGYSVLGAERSEPLRDEDDDLLQFAIQQSLLEAGTEAEQVTVWEALTNTRPGIHPPPRVTVFEEQLQLEQALQESLQLSTESRGPESPQKTPPSPAPPSFEEQLRLALELSSREQEELERRGQQEEDDLQRILQLSLTEH | binds
